The results in this text go back to article PMC12475974.

The chains behind the UniProt entries cited, without tags or fusion partners.
UniProt Q9QZL0: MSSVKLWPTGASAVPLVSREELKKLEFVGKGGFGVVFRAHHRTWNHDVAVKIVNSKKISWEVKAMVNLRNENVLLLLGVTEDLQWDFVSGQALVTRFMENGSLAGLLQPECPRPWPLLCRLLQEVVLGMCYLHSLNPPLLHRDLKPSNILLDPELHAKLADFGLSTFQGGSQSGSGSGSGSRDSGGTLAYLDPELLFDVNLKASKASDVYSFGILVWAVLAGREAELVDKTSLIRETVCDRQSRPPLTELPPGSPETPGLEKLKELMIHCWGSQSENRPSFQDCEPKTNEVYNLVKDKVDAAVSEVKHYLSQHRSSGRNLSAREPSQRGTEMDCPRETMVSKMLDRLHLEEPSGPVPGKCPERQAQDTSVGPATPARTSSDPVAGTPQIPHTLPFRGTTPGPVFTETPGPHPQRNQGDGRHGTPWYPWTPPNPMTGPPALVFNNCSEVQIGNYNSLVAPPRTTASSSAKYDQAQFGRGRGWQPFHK

No constants are given. Whether binding was seen depends on the method and setting. Binding seen in cells or lysates may run through a third protein. Some results given as binding are weak or reduced against the parent protein; the word gives no strength.

The target of this assay is T1, tank-binding kinase 1 (TBK1) (mouse (endogenous in bone marrow-derived MDSCs)) (UniProt Q9WUN2).
T1 sequence: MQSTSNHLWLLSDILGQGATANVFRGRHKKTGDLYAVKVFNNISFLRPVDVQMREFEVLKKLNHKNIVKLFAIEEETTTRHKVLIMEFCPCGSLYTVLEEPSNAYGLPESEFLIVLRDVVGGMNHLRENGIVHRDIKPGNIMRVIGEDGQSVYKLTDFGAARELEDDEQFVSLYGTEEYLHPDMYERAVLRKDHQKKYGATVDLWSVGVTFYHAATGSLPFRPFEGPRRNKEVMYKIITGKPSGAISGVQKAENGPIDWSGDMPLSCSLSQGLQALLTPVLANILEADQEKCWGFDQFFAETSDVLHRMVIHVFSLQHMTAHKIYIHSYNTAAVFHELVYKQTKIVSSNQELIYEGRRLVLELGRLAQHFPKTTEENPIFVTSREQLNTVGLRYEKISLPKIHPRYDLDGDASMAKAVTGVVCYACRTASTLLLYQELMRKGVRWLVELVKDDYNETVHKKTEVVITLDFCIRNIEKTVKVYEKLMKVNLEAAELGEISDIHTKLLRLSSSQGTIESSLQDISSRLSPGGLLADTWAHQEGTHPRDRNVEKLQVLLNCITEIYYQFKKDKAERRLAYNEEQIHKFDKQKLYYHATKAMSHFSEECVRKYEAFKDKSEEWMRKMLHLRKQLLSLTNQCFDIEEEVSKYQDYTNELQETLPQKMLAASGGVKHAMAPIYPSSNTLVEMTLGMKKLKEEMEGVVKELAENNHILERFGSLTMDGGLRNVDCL
Nature of the assay: co-IP; whole cell lysates (NP40/IP lysis buffer) of Ch25h f/f and Ch25h f/f Lyz2Cre(±) MDSCs; primary antibodies or normal mouse IgG overnight at 4°C, magnetic beads, PBST washes, protein blotting.

For “receptor-interacting protein kinase 3 (RIPK3) (from UniProt Q9QZL0 1-486)”, the binding result is recorded as “binds”.
